Test results from paper PMC4582147.

Molecular target: T1, GST-dTAF2 (1125-1221) (Drosophila melanogaster) (UniProt Q24325)
T1 sequence (looked up): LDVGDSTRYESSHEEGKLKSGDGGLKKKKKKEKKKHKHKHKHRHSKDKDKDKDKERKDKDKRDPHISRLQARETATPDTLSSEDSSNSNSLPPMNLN
Assay: small-molecule microarray rescue
Settings: nuclease-treated protein, dsDNA (1 ug/ml) restores binding to printed tin-containing compound 1, indirect read-out; recombinant protein; residues 1125-1221; protein details: GST

## GCTTGCATGCGTACTTATATAAGGGGGTGGGGGCGCGTT (double strand) [dsDNA rescue oligonucleotide]
  binding result: binds

For at least one entry, the source does not settle the construct or the ends of the probe. At least one verdict rests on a figure or table, not on a statement of the authors. Where a protein sequence is shown, tags need not be part of it.
